Measurements reported in PubChem BioAssay AID493014 (National Center for Advancing Translational Sciences (NCATS), 2011).
Screen size: about 340,000 compounds; about 170 (0.05%) were called active. Inconclusive results, whose numbers are uncertain, are shown with a selection of clear calls. Calls follow the shape of the dose curve; as a rule, active = well fitted inhibition curve with a large enough effect in the signal ratio, with a control signal flat (not every such curve was filed as active); inconclusive = small, poorly fitted or top-dose-only effect, or effect the other way, or a change in a side signal; inactive = flat fitted curve, though single readings scatter; the % refers to the signal ratio. Potencies of inconclusive entries are doubtful fits and often do not repeat.

assay: qHTS Assay to Find Inhibitors of Chronic Active B-Cell Receptor Signaling; conditions: ABC-DLBCL IkBa-CBG/CBR reporter, luminescence ratio (green luciferase fused to IkBa over red control in TMD8 lymphoma cells), 4 h; activity change, negative = inhibition: at 46.1 µM (top of the series) unless noted;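 as to activity change, negative = inhibition: plate controls were basal doxycycline-induced cells for no effect and cells given 10 µM MG132 for full effect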
Method in brief: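 Concentration-response series (up to 46 uM) were applied to TMD8 dual-reporter cells for 4 h at 37C with doxycycline. Green/red ratio, after filter-overlap correction, defined %Activity; red signal alone was normalised to basal cells and zero luminescence.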
Potency is read from the fitted curve at half-maximal effect.

Structure (SMILES) | activity change, negative = inhibition | Potency
COc1ccc(NC(=O)c2cc(S(=O)(=O)NCC3COc4ccccc4O3)ccc2F)cc1 (stereo unspecified) | inconclusive: -8.98% | –
COc1ccccc1N1CCN(C(=O)c2ccc3c(=O)n(Cc4ccc5c(c4)OCO5)c(=O)[nH]c3c2)CC1 | inconclusive: 1.38% | –
C/C=N/N(c1ccccc1)c1ccccc1 | inconclusive: 3.68% | –
Cc1ccnc(NCc2c(O)ccc3ccccc23)c1 | inconclusive: 4.96% | –
Cc1ccc(S(=O)(=O)Oc2ccc(/C=N/NC(=O)c3cccnc3)cc2)cc1 | inconclusive: -2.26% | –
O=C1CC(c2ccccc2F)c2cc3c(cc2N1)CCC3 (stereo unspecified) | – | inconclusive: 17.8 µM [falling, single point]
Cc1cc(/C=C(/C#N)c2cccc(F)c2)c(C)n1-c1cccnc1 | – | inconclusive: 6.51 µM [rising, single point]
CCOC(=O)CC1C(=O)NC2CCCCC2N1C(=O)Nc1ccc(Cl)cc1 (stereo unspecified) | – | inconclusive: 5.8 µM [rising, full curve, poor fit]
COc1cc(/C=C/C(=O)OCC(=O)Nc2cccc(Oc3ccccc3)c2)ccc1O | – | inconclusive: 23.1 µM [falling, single point]
CCCSc1nnc(Cc2cc(=O)[nH]c(=O)[nH]2)n1-c1cc(C)ccc1C | inactive | –
Cc1cccc2cc(COC(=O)c3ccccc3)c(=O)[nH]c12 | inconclusive: 9.82% | –
O=C(N/N=C1/CC2C=CCC12)c1ccco1 (stereo unspecified) | – | inconclusive: 18.4 µM [falling, single point]
COc1cc(NC(=S)NCc2cccnc2)c(OC)cc1Cl | inactive | –
O=C(NC1CCCCC1)NC1CC2CCCC(C1)N2C1CCCC1 (stereo unspecified) | inconclusive: -13.4% | –
O=C(N/N=C1/CC2CCC1C2)c1cc2ccccc2cc1O (stereo unspecified) | inactive | –
CC(=O)c1cccc(NC(=O)c2cc(C)nn2-c2ccccc2)c1 | inconclusive: -0.769% | –
COc1ccc(-n2nc(C(=O)NCC(=O)NCCCN3CCC(C)CC3)c3ccccc3c2=O)cc1Cl | inconclusive: -0.642% | –
Cc1ccc(C(C)NC(=O)/C(C#N)=C\c2c(C)[nH]c3ccccc23)cc1 (stereo unspecified) | – | inconclusive: 4.11 µM [falling, partial curve, poor fit]
O=C(O)c1ccccc1OCCOCCOc1ccccc1C(=O)O | inconclusive: 13.4% | –
CC(/C=N\NC(=O)c1cc(C)oc1C)=C\c1ccccc1 | – | inconclusive: 0.517 µM [falling, full curve]
COC(=O)c1ccc(C2/C(=C(\O)c3ccc4c(c3)OCCO4)C(=O)C(=O)N2c2nnc(C)s2)cc1 (stereo unspecified) | inactive | –

Structure (SMILES) | activity change, negative = inhibition | Potency
Cc1cc2c(c(=O)n1C)C(Cc1ccccc1)C(C#N)=C(N)O2 (stereo unspecified) | inconclusive: 1.57% | –
OC(COC(c1ccc(Cl)cc1)c1ccc(Cl)cc1)CN1CCN(c2ccccn2)CC1 (stereo unspecified) | inconclusive: -16.6% | –
Cc1ccc(NS(=O)(=O)c2ccc3c(c2)n(C)c(=O)n3C)cc1 | inactive | –
CC12CCC(=O)C=C1CCC1C2CCC2(C)C1CC[C@]2(O)C(=O)CO (stereo partly specified) | inconclusive: -2.13% | –
Cc1ccc(NC(=S)Nc2cccc3ccccc23)cc1 | inactive | –
N#CCc1c(C#N)c(N)nc(N2CCN(S(=O)(=O)c3ccccc3)CC2)c1C#N | inconclusive: 4.42% | –
NC(=O)C1CCN(c2nc(-c3ccccc3Br)cs2)CC1 | – | inconclusive: 2.59 µM [falling, full curve]
Nc1cc(S(=O)(=O)N2CCCCC2)ccc1Oc1ccc(Cl)cc1 | inactive | –
FC(F)(F)c1ccccc1-c1nc(-c2ccncc2)no1 | inconclusive: -2.46% | –
C1=C(c2ccccc2)N2CCN=C2S1 | inconclusive: 2.39% | –
CCOc1ccccc1N1CCN(C(=O)c2cc3cc(OC)ccc3[nH]2)CC1 | inconclusive: -11% | –
Cc1cc(C(=O)NNC(=O)c2nn(C)c(=O)c3ccccc23)c(C)o1 | – | inconclusive: 20 µM [falling, partial curve]
CN(c1ccccc1)S(=O)(=O)c1ccc(C(=O)Nc2nnc(-c3ccc(F)cc3)o2)cc1 | inactive | –
CC(=O)CSc1nnc(Cc2ccc3c(c2)OCO3)o1 | – | inconclusive: 0.326 µM [falling, partial curve, poor fit]
COc1cccc(CN(C)C(=O)c2cc(COc3ccc4ncccc4c3)on2)c1 | – | inconclusive: 14.1 µM [falling, single point]
COC(=O)C1=C2SC(C)C(=O)N2C(N)=C(C#N)C1c1ccc(OC)c(OC)c1 (stereo unspecified) | inactive | –
COc1ccc(CCN2C(=O)C(Oc3ccccc3C)C2c2ccc3c(c2)OCO3)cc1 (stereo unspecified) | inactive | –
CCCCCC1CCC(C(=O)NNC(=S)NCC)CC1 (stereo unspecified) | – | inconclusive: 35.5 µM [rising, single point]
Cc1ccc(S(=O)(=O)N2CCCC(C)C2)cc1 (stereo unspecified) | inactive | –
C=CCn1c(=S)[nH]c2cc(-c3ccccc3)sc2c1=O | – | inconclusive: 7.08 µM [rising, full curve]
COc1ccc(NCC(=O)NN=C2CCS(=O)(=O)c3ccc(F)cc32)cc1 | inconclusive: 5.98% | –

Structure (SMILES) | activity change, negative = inhibition | Potency
Cc1cc(C(=O)OCC(=O)Nc2cc(S(=O)(=O)N3CCOCC3)ccc2Cl)c(C)o1 | – | inconclusive: 18.4 µM [falling, partial curve]
COc1ccc(-c2cc(C(=O)O)c(C)o2)cc1OC | – | inconclusive: 0.00517 µM [rising, full curve, poor fit]
O=C(Cc1cccs1)NCc1cc(Cl)cc(Cl)c1 | inconclusive: 3.62% | –
CC(=O)Nc1ccc(-c2nnc(SCc3c(C)cc(C)cc3C)n2C)cc1 | – | inconclusive: 29.1 µM [falling, single point]
O=c1[nH]cnc2c1cnn2Cc1ccccc1 | inconclusive: 5.86% | –
CC(=O)Nc1ccc(NC(=O)COC(=O)/C(=C/c2ccccc2)n2nnnc2C)cc1 | inconclusive: -18% | –
CCOC(=O)c1ccc(NC(=O)Cn2ccc([N+](=O)[O-])n2)cc1 | inactive | –
COc1cccc(-c2nnc(Nc3nc4c(F)cccc4s3)o2)c1 | – | inconclusive: 2.31 µM [cytotoxic, full curve, poor fit]
CC(=O)Oc1cc2c(cc1Cl)C1(CC(c3ccccc3Cl)O2)CC(C)(C)NC(=S)N1 (stereo unspecified) | inconclusive: -0.575% | –
COc1ccccc1-c1nc2ccccc2nc1-c1ccccc1 | inactive | –
CC(C)(C)NC(=O)CN1CCN(C(=O)CCl)CC1 | inconclusive: -1.91% | –
N#Cc1c(N)nc2c(c1-c1ccc(Br)s1)CCCC2 | inactive | –
Cc1cccn2c(=O)c(C=NCCO)c(NCc3ccco3)nc12 | inconclusive: -4.76% | –
CCOc1cc(-c2nc(C)c(C(C)=O)n2O)ccc1OCC(=O)Nc1cccc(C)c1 | inconclusive: 10% | –
Cc1ccc(S(=O)(=O)N2CCN(S(=O)(=O)c3ccc(C)cc3)C2c2ccccc2)cc1 | inactive | –
COc1ccc(C(c2c(NC(C)=O)sc3c2CCCC3)N2CCN(CCO)CC2)cc1OC (stereo unspecified) | inactive | –
CCNCCC(=O)N1c2ccccc2Sc2ccc(NC(=O)OCC)cc21 | inconclusive: 1.43% | –
O=C(c1cccc(Cl)c1)N1CCN(c2ncnc3c2cnn3-c2ccccc2)CC1 | inactive | –
O=C(CCC(=O)OCC(F)(F)C(F)F)Nc1ccc(F)cc1F | inactive | –
COC(=O)C1C(O)=C(C=Nc2ccccc2)C(=O)CC1(C)C (stereo unspecified) | – | inconclusive: 8.91 µM [falling, partial curve, poor fit]
CC(C)C(NC(=O)C1CCCCC1)C(=O)NC1=NCCS1 (stereo unspecified) | inconclusive: 26.5% | –

Structure (SMILES) | activity change, negative = inhibition | Potency
COc1ccc(/C=N/NC(=O)c2cccc(O)c2)cc1Cn1nc(C)c([N+](=O)[O-])c1C | – | inconclusive: 25.1 µM [falling, partial curve]
COc1cccc(C(=O)Nc2ccc(S(=O)(=O)Nc3cc(C)nc(C)n3)cc2)c1 | – | inconclusive: 35.5 µM [falling, single point]
Cc1sc2ncn(CC(=O)NCCCC(=O)N3CCCCC3)c(=O)c2c1C | inactive | –
CC(C)CCNC(=O)CN(Cc1cccs1)C(=O)CCC(=O)Nc1nccs1 | inconclusive: -10.1% | –
Cc1ccc(-n2[nH]c(C)c(C=Nc3ccc(S(=O)(=O)Nc4nccs4)cc3)c2=O)cc1C | inactive | –
CC(=O)Nc1cccc(-c2nc3ccccc3s2)c1 | inactive | –
Cc1cc(C)c2[nH]c(=O)c(C(c3nnnn3CC3CCCO3)N3CCCC(C)C3)cc2c1 (stereo unspecified) | inactive | –
Cc1cc(C)c(S(=O)(=O)NCc2ccc3c(c2)OCO3)c(C)c1 | inconclusive: -114% | –
CCC(C)(C)NC(=O)C(c1ccco1)N(C(=O)Cn1nnc2ccccc21)c1ccc2c(c1)OCO2 (stereo unspecified) | inconclusive: 0.737% | –
CCOC(=O)N1CCN(C(=O)CCn2c(=S)[nH]c3ccccc3c2=O)CC1 | inconclusive: 7.73% | –
CCc1ccc(NC(=O)CSC2=Nc3ccccc3C3=NC(CC(=O)NC4CCCCC4)C(=O)N23)cc1 (stereo unspecified) | inactive | –
O=C(/C=C/c1ccccc1)NC1CC2CCC1C2 (stereo unspecified) | – | inconclusive: 18.4 µM [falling, single point]
Cc1cc(NC(=O)CSc2nncn2N)no1 | inactive | –
COc1ccc(C/C(N)=N/n2cnnc2)cc1Cl | inconclusive: 2.95% | –
COc1ccc(-n2cc(C(=O)c3cc(Cl)ccc3O)cc(C#N)c2=O)cc1 | – | inconclusive: 3.98 µM [falling, full curve, poor fit]
C=CCNC(=S)NNC(=O)c1ccc(Br)cc1 | – | inconclusive: 29.1 µM [falling, single point]
CCOc1ccc(C(=O)NCC(=O)OCC(=O)N2CCC(C)CC2)cc1 | inconclusive: -6.57% | –
Cc1ccc(C)c(N2C(=N)S/C(=C\c3ccc(-c4ccccc4C(=O)O)o3)C2=O)c1 | – | inconclusive: 20 µM [falling, partial curve, poor fit]

Part of the list above, tab-delimited.
Structure (SMILES)	activity change, negative = inhibition	Potency
CC(C)CCNC(=O)CN(Cc1cccs1)C(=O)CCC(=O)Nc1nccs1	inconclusive: -10.1%	–
Cc1ccc(-n2[nH]c(C)c(C=Nc3ccc(S(=O)(=O)Nc4nccs4)cc3)c2=O)cc1C	inactive	–
CC(=O)Nc1cccc(-c2nc3ccccc3s2)c1	inactive	–
